1 compound from patent publication US8153609B2 (priority 2004, dated 2012) can be followed below.

The IC50 is the concentration needed to halve the response being measured.

Each structure is given as a SMILES string. The match of structure and compound is tentative.

In assay [1] the test system is Human peripheral T lymphocytes. Description: T lymphocyte proliferation assay (anti-CD3 activated, [3H]thymidine). Particulars: Ex vivo testing in T lymphocytes.
The target in assay [2] is T1, PKA type Iα (RIα/Cα) holoenzyme (Homo sapiens, UniProt P10644). The experiment in a line: Cook assay, activation (agonist) assay, RIα holoenzyme. The class given is biochemical. The settings on record: Table 1 (Example 83), activation screen 10 μM analog.
Assay [3] addresses T1, PKA type Iα (RIα/Cα) holoenzyme. The experiment in a line: Cook coupled spectrophotometric kinase assay, suppression (antagonist) assay, PKA type Iα. The class given is biochemical.

For `Nc1ncnc2c1nc(-c1cc[nH]c1)n2[C@@H]1O[C@@H]2CO[P@@](=O)(S)O[C@H]2[C@H]1O`, in assay [1], the Agonist properties result is given as “No”. The Antagonist properties result in assay [1] (in presence of agonist Sp-8-Br-cAMPS) was “Yes”. In addition, the “relative potency*” value in assay [1] (reference compounds = 1.00) is reported as 0.11; in assay [3] (antagonists relative to Rp-8Br-cAMPS) it was 0.37. Further, in assay [2], the Agonist result is “no”. The Antagonist result in assay [3] (Table 1 (Example 83), PKA type Iα) was “yes”. The IC50 in assay [3] (read-out: half-maximal antagonistic effect (IC50 or EC50), reversal of Sp-8-Br-cAMP-mediated PKA activation, 1 μM Sp-8-Br-cAMPS, 10 nM RIα holoenzyme) is 3.61 µM.
